Results published in doi:10.1101/2025.11.10.686860.
These are yes or no findings as the source states them, for the method shown. In cells and extracts the contact can be indirect. Some entries that bind do so weakly or less than the wild type. For part of these data: Sequences can lack the tags named with a protein. Values belong to the binder of their own block, whether it stands above or below them.

What was measured:
FLAG-KRAS 4B Q61R = FLAG-KRAS 4B Q61R (UniProt P01116); experiment: co-IP
FLAG-KRAS 4B G12D = FLAG-KRAS 4B G12D (UniProt P01116); experiment: co-IP
FLAG-KRAS 4B G12C = FLAG-KRAS 4B G12C (UniProt P01116); experiment: co-IP
FLAG-KRAS 4B S17N = FLAG-KRAS 4B S17N (UniProt P01116); experiment: co-IP
FLAG-KRAS 4B G12A = FLAG-KRAS 4B G12A (UniProt P01116); experiment: co-IP
[1] = biological target: KRAS G12C (endogenous, H358 cells) (human (endogenous in H358)) (UniProt P01116); experiment: pull-down
[2] = biological target: FLAG-KRAS 4B wild type, P01116; experiment: co-IP; details: remark: other sources report otherwise

B1: MYC-eIF2Bα (protein, UniProt Q14232 1-305)
chain: MDDKELIEYFKSQMKEDPDMASAVAAIRTLLEFLKRDKGETIQGLRANLTSAIETLCGVDSSVAVSSGGELFLRFISLASLEYSDYSKCKKIMIERGELFLRRISLSRNKIADLCHTFIKDGATILTHAYSRVVLRVLEAAVAAKKRFSVYVTESQPDLSGKKMAKALCHLNVPVTVVLDAAVGYIMEKADLVIVGAEGVVENGGIINKIGTNQMAVCAKAQNKPFYVVAESFKFVRLFPLNQQDVPDKFKYKADTLKVAQTGQDLKEEHPWVDYTAPSLITLLFTDLGVLTPSAVSDELIKLYL
binding (FLAG-KRAS 4B Q61R): binds
binding (FLAG-KRAS 4B G12D): binds
binding (FLAG-KRAS 4B G12C): binds
binding (FLAG-KRAS 4B S17N): no binding
binding (FLAG-KRAS 4B G12A): binds

B3: MYC-eIF2Bα, Q14232 1-305 (protein)
chain: MDDKELIEYFKSQMKEDPDMASAVAAIRTLLEFLKRDKGETIQGLRANLTSAIETLCGVDSSVAVSSGGELFLRFISLASLEYSDYSKCKKIMIERGELFLRRISLSRNKIADLCHTFIKDGATILTHAYSRVVLRVLEAAVAAKKRFSVYVTESQPDLSGKKMAKALCHLNVPVTVVLDAAVGYIMEKADLVIVGAEGVVENGGIINKIGTNQMAVCAKAQNKPFYVVAESFKFVRLFPLNQQDVPDKFKYKADTLKVAQTGQDLKEEHPWVDYTAPSLITLLFTDLGVLTPSAVSDELIKLYL
binding [2]: no binding

B4: MYC-eIF2Bβ, P49770 1-351 (protein)
chain: MPGSAAKGSELSERIESFVETLKRGGGPRSSEEMARETLGLLRQIITDHRWSNAGELMELIRREGRRMTAAQPSETTVGNMVRRVLKIIREEYGRLHGRSDESDQQESLHKLLTSGGLNEDFSFHYAQLQSNIIEAINELLVELEGTMENIAAQALEHIHSNEVIMTIGFSRTVEAFLKEAARKRKFHVIVAECAPFCQGHEMAVNLSKAGIETTVMTDAAIFAVMSRVNKVIIGTKTILANGALRAVTGTHTLALAAKHHSTPLIVCAPMFKLSPQFPNEEDSFHKFVAPEEVLPFTEGDILEKVSVHCPVFDYVPPELITLFISNIGGNAPSYIYRLMSELYHPDDHVL
binding [2]: no binding

Continued, values first:

binding [1]: binds
B2: eIF2Bα (endogenous) (protein, UniProt Q14232 1-305)
chain: MDDKELIEYFKSQMKEDPDMASAVAAIRTLLEFLKRDKGETIQGLRANLTSAIETLCGVDSSVAVSSGGELFLRFISLASLEYSDYSKCKKIMIERGELFLRRISLSRNKIADLCHTFIKDGATILTHAYSRVVLRVLEAAVAAKKRFSVYVTESQPDLSGKKMAKALCHLNVPVTVVLDAAVGYIMEKADLVIVGAEGVVENGGIINKIGTNQMAVCAKAQNKPFYVVAESFKFVRLFPLNQQDVPDKFKYKADTLKVAQTGQDLKEEHPWVDYTAPSLITLLFTDLGVLTPSAVSDELIKLYL

binding [2]: no binding
B5: MYC-eIF2Bγ, Q9NR50 1-452 (protein)
chain: MEFQAVVMAVGGGSRMTDLTSSIPKPLLPVGNKPLIWYPLNLLERVGFEEVIVVTTRDVQKALCAEFKMKMKPDIVCIPDDADMGTADSLRYIYPKLKTDVLVLSCDLITDVALHEVVDLFRAYDASLAMLMRKGQDSIEPVPGQKGKKKAVEQRDFIGVDSTGKRLLFMANEADLDEELVIKGSILQKHPRIRFHTGLVDAHLYCLKKYIVDFLMENGSITSIRSELIPYLVRKQFSSASSQQGQEEKEEDLKKKELKSLDIYSFIKEANTLNLAPYDACWNACRGDRWEDLSRSQVRCYVHIMKEGLCSRVSTLGLYMEANRQVPKLLSALCPEEPPVHSSAQIVSKHLVGVDSLIGPETQIGEKSSIKRSVIGSSCLIKDRVTITNCLLMNSVTVEEGSNIQGSVICNNAVIEKGADIKDCLIGSGQRIEAKAKRVNEVIVGNDQLMEI
